Among the data in article PMC5085214 are binding values, retold here.

These are yes or no findings as the source states them, for the method shown. In cells and extracts the contact can be indirect. Some entries that bind do so weakly or less than the wild type.

This assay deals with p53 (human (endogenous in T24)) (UniProt P04637). Briefly: co-IP; endogenous JNK2 and p53 in T24 cells; lysis buffer 50 mM Tris-HCl pH 7.5, 150 mM NaCl, 1% Nonidet P-40, 0.5% sodium deoxycholate; antibody and protein-G beads at 4°C overnight; which protein was precipitated is not told.

Take “c-Jun N-terminal kinase-2 (JNK2) (from UniProt P45984 1-424)”: the binding entry is recorded as “binds”.
